Experimental findings from publication PMC3299563, “Salt Bridges Regulate Both Dimer Formation and Monomeric Flexibility in HdeB and May Have a Role in Periplasmic Chaperone Function” (Journal of Molecular Biology, 2011) are described below.

Substitutions are numbered along the chain they refer to. Names and notes keep the numbering of the source. No constants are given. Whether binding was seen depends on the method and setting. For some of these results: Sequences can lack the tags named with a protein.

Experiment [1] addresses HdeB double mutant (W55A, W56A) (E. coli) (UniProt P0AET2). The experiment in a line: SEC; gel filtration at neutral pH (pH 7); both purified. (SEC sorts molecules by how far they enter the pores of the column.)
The target in a further experiment is HdeB E41Q (E. coli) (UniProt P0AET2). The experiment in a line: condition: only at low pH (apparent pKa ∼ 0.5 pH units higher than that of wild type); 50 μM; other fluorescence titration; intrinsic tryptophan fluorescence (emission maximum, acrylamide quenching, anisotropy) against pH; 50 μM HdeB, McIlvaine buffer or 10 mM KCl with HCl, 20 °C; acid side of the transition (below around pH 3 for the wild type); both purified.

Experiment [2] has as its target HdeB D76N (E. coli) (UniProt P0AET2). The experiment in a line: SEC; gel filtration at low pH (pH 2.5 for the wild type); both purified.
Experiment [3] has the same target. The experiment in a line: other fluorescence titration; intrinsic tryptophan fluorescence (emission maximum, acrylamide quenching, anisotropy) against pH; 50 μM HdeB, McIlvaine buffer or 10 mM KCl with HCl, 20 °C; acid side of the transition (below around pH 3 for the wild type); both purified.
A further experiment has as its target HdeB H59N (E. coli) (UniProt P0AET2). The experiment is described as above.
Experiment [4] addresses HdeB-His6 WT (E. coli) (UniProt P0AET2). Description: SEC; gel filtration at low pH (pH 2.5 for the wild type); both purified.
Experiment [5] has the same target. The experiment in a line: other fluorescence titration; intrinsic tryptophan fluorescence (emission maximum, acrylamide quenching, anisotropy) against pH; 50 μM HdeB, McIlvaine buffer or 10 mM KCl with HCl, 20 °C; acid side of the transition (below around pH 3 for the wild type); both purified.

B1: HdeB double mutant (W55A, W56A) (protein, UniProt P0AET2 30-108)
chain: ANESAKDMTCQEFIDLNPKAMTPVAAAMLHEETVYKGGDTVTLNETDLTQIPKVIEYCKKNPQKNLYTFKNQASNDLPN
In the case of B1, in experiment [1], the binding entry was “no binding”.

B2: HdeB E41Q (natural protein, E. coli, UniProt P0AET2 30-108, looked up)
chain: B1 chain with E12Q, A26W, A27W
notes: HdeB, E. coli, with E41Q; residue numbers count on the precursor; The methods speak of 'purified HdeB-His6 WT and E41Q samples'; probably the same construct and host as the wild type; also called E41Q mutant; source: purified mutant protein
Consider B2, for which the binding result with HdeB E41Q (E. coli) was “no binding”.

B3: HdeB D76N (natural protein, E. coli, UniProt P0AET2 30-108, looked up)
chain: B1 chain with A26W, A27W, D47N
notes: HdeB, E. coli, with D76N; residue numbers count on the precursor; Probably made from the HdeB-His6 construct; also called D67N (as printed in two places)
With B3, the binding entry with HdeB D76N (E. coli) [2] and with HdeB D76N (E. coli) [3] was “no binding (condition: at low pH)” throughout.

B4: HdeB H59N (natural protein, E. coli, UniProt P0AET2 30-108, looked up)
chain: B1 chain with A26W, A27W, H30N
notes: HdeB, E. coli, with H59N; residue numbers count on the precursor; Probably made from the HdeB-His6 construct; also called H59N mutant
Turning to B4, the binding entry in the experiment with HdeB H59N (E. coli) is on record as “no binding (condition: at low pH)”.

B5: HdeB-His6 WT (natural protein, E. coli, UniProt P0AET2 30-108, looked up)
chain: B1 chain with A26W, A27W
notes: HdeB, E. coli periplasmic acid-stress chaperone; begins at A30; A30 to A102 ordered in the crystal plus six disordered C-terminal residues; residue numbers count on the precursor; Cloned with hdeA (hdeAB genes) in pTrc99A; primers are in the Supplementary Data; also called HdeB WT; wild type; source: E. coli MG1655ΔhdeAB, plasmid pTrcHdeABHis6, 1 mM IPTG, purified (Ni resin, gel filtration); not …
B5: the binding entry with HdeB-His6 WT (E. coli) [4] is listed as “no binding (condition: at pH 2.5)”; with HdeB-His6 WT (E. coli) [5], “no binding (condition: below around pH 3)”.
